Key:
[1] = Plasma concentration in anesthetized guinea pigs; conditions: IV
Text: Adult, male Dunkin-Hartley guinea pigs (350–550 g) were anesthetized and instrumented as previously described.

Protein sequences, listed by entry. Tags and fused reporters are not part of them.
UniProt Q01668, whole entry: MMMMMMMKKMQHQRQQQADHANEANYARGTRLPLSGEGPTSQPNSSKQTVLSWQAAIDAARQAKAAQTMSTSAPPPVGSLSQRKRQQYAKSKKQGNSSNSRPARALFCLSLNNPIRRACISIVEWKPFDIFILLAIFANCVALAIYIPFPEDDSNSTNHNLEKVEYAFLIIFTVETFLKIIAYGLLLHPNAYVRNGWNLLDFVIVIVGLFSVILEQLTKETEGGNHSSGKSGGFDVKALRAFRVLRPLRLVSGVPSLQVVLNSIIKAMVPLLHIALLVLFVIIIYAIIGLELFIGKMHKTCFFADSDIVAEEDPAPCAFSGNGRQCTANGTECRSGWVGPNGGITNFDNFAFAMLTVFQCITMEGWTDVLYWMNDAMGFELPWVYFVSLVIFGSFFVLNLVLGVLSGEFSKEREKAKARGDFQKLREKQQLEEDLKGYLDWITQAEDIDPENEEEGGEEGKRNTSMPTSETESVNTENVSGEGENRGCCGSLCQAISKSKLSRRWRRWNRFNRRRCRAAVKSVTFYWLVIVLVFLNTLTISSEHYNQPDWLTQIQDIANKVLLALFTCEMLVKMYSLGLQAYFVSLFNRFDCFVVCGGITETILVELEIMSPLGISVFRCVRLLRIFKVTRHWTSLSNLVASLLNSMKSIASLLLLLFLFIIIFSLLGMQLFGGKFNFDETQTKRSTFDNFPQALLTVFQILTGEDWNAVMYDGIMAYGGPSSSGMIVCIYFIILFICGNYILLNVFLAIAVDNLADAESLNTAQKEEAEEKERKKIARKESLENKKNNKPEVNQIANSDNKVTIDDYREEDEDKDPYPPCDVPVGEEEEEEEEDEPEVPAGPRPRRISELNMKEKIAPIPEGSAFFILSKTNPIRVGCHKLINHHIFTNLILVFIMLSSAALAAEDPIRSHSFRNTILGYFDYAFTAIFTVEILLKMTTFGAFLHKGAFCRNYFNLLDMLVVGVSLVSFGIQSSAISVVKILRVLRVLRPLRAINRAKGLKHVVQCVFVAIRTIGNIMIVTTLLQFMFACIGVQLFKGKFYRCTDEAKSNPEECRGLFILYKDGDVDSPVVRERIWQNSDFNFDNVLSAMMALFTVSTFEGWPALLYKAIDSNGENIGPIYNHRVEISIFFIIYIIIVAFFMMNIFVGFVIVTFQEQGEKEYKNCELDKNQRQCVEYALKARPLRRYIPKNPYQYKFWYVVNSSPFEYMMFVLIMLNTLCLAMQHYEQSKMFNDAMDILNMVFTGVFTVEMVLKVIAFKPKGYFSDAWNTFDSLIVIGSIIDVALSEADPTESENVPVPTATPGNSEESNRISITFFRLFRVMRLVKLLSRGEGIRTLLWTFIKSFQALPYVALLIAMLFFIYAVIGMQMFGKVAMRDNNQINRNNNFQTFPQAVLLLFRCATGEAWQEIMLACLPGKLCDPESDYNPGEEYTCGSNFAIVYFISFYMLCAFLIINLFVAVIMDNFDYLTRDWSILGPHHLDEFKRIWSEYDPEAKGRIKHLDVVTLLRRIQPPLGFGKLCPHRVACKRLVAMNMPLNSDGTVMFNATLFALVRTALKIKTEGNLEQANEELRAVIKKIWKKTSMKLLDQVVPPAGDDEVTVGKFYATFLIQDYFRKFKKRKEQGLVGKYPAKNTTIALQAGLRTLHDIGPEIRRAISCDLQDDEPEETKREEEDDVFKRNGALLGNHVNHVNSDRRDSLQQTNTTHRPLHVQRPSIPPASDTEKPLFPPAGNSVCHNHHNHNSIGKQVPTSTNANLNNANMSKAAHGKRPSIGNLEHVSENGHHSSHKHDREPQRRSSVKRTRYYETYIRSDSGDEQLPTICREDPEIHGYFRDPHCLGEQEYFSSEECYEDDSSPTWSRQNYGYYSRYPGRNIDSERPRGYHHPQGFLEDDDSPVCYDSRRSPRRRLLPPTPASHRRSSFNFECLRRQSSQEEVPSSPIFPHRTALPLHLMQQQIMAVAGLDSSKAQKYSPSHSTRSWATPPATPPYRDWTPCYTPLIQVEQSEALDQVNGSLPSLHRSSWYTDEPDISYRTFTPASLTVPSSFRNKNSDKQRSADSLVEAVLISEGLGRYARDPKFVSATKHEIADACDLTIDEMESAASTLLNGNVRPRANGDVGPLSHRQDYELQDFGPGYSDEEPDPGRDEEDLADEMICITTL

[2] = Plasma concentration in conscious rhesus monkeys; conditions: at the end of the MNI-2+amiodarone experiment
Experimental: Arterial BP and ECG waveforms from four chronically-instrumented male, rhesus monkeys (8-16 kg at time of study, approximately 5–8 years of age), were continuously recorded (Notocord-hem™ v 4.3.0.67) and analyzed as described. Prior to study, animals were acclimated to the restraint chair and the laboratory environment over multiple sessions. […] MNI-2 was formulated in 30% Captisol®. […] Samples were placed on wet ice, centrifuged at 4 °C and plasma removed and stored at −70 °C until analysis of concentration of test agents and any metabolites of interest.

Cav1.3 = target: T1, Cav1.3 (Homo sapiens, UniProt Q01668); assay: Ca2+ influx in Cav1.3/HEK-293 cells (FDSS); type: cell-based; conditions: IC50, Ca2+ influx inhibition by amiodarone
T1 construct: host or cells: HEK-293 (transient overexpression)
Experimental: The HEK-293 cell line overexpressing Cav1.2 channel proteins was maintained in-house. HEK-293 cells transiently overexpressing Cav1.3 channel proteins were purchased from ChanTest (Charles River Laboratories, Cleveland, OH, USA). The assay was conducted as previously described. Briefly, on experiment day, cells were incubated with Codex ACTOne® dye (Codex Biosolutions, Inc., Gaithersburg, MD, USA) formulated in PPB buffer containing 25 mM potassium (in mM: 127 NaCl, 25 KCl 0.005 CaCl2, 1.7 MgCl2, 10 HEPES, pH = 7.2 with NaOH), or PPB buffer containing 1 mM potassium (in mM: 151 NaCl, 1 KCl 0.005 CaCl2, 1.7 MgCl2, 10 HEPES, pH = 7.2 with NaOH) for 1 h at room temperature, then test compounds were added for another 30-minute incubation at room temperature with a final volume of 100 μL. The Hamamatsu FDSS/μCell imaging platform simultaneously collected Ca^2+ signals from 96-well plates, at a sampling rate of 16 Hz for 20 seconds as baseline, then a trigger buffer (containing in mM: 119 NaCl, 25 KCl, 4 CaCl2, 1.7 MgCl2, 10 HEPES, pH = 7.2 with NaOH) was added using the dispenser of the FDSS/μCell instrument to generate Ca^2+ transient for 40 seconds. The peak amplitude within the latter 40 seconds minus the average amplitude of the first 20 seconds is the final Ca^2+ transient response of each well. […] Relative response of each well was calculated as follows: […]

Plasma concentration of parent ([1]; agent + vehicle, End of Infusion 1): 1100 ± 200 nM | Plasma concentration of parent ([1]; agent + vehicle, End of Infusion 2): 1100 ± 300 nM | Plasma concentration of parent ([1]; agent + vehicle, End of Infusion 3): 1100 ± 300 nM | Plasma concentration of parent ([1]; agent + vehicle, End of Infusion 4): 1400 ± 400 nM | Plasma concentration of parent ([1]; treatment MNI-2+AMIO, End of Infusion 1): 1200 ± 200 nM | Plasma concentration of parent ([1]; treatment MNI-2+AMIO, End of Infusion 2): 900 ± 40 nM | Plasma concentration of parent ([1]; treatment MNI-2+AMIO, End of Infusion 3): 900 ± 100 nM | Plasma concentration of parent ([1]; treatment MNI-2+AMIO, End of Infusion 4): 900 ± 200 nM | Plasma concentration [2]: 402 ± 23 ng/mL | IC50 (Cav1.3; Cav1.3/HEK-293, 1 μM MNI-1 + amiodarone): 190 nM | IC50 (Cav1.3; Cav1.3/HEK-293, amiodarone alone): 530 nM
SMILES: CCCCc1oc2ccccc2c1C(=O)c1cc(I)c(OCCN(CC)CC)c(I)c1 [amiodarone, reference compound]

— article PMC5361079 (Scientific Reports, 2017)
